From publication PMC12562877 come the findings set out here.

Sequences of proteins named here, by UniProt entry; tags and fusion partners are left off. Residues count along the entry.
UniProt Q9NZQ7, residues 19-290: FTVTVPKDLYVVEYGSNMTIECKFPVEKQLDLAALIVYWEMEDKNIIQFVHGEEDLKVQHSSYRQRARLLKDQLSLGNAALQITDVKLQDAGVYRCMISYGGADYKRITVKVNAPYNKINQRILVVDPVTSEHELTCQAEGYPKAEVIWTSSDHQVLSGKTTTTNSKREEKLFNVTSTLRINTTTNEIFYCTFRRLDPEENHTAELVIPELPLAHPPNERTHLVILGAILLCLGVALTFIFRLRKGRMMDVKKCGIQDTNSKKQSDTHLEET
UniProt Q05397: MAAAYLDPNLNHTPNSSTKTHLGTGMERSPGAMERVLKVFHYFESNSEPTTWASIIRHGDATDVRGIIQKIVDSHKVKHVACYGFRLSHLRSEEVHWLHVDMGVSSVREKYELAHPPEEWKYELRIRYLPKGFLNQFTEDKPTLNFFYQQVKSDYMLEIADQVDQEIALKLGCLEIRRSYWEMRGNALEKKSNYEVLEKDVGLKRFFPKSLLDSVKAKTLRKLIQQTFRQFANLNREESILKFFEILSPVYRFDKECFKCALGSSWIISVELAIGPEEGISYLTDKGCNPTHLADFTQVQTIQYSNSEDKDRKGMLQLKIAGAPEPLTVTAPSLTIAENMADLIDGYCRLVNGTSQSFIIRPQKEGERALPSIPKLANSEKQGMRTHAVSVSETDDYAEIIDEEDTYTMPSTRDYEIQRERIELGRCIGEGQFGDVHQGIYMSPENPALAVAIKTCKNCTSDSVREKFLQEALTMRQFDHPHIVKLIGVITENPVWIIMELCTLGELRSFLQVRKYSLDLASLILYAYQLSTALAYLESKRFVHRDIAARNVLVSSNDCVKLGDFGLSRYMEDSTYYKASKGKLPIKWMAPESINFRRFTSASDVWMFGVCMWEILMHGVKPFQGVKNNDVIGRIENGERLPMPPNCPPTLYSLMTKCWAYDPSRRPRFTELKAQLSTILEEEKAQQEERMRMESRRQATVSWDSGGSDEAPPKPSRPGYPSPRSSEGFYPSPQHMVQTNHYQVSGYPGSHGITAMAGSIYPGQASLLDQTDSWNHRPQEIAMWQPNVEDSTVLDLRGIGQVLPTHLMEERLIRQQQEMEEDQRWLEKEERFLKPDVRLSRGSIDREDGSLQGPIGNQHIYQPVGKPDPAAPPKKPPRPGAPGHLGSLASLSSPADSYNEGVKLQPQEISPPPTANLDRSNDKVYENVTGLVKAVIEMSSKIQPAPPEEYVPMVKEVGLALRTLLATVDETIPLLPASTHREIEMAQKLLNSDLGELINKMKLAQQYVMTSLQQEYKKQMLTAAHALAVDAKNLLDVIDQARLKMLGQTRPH

These are yes or no findings as the source states them, for the method shown. Binding seen in cells or lysates may run through a third protein. Some binding calls cover weakened binding; strength is not graded here.

Assay [1] addresses PD-L1-NanoLuc fusion (PD-L1-NL) (UniProt Q9NZQ7). Description: co-IP; HEK293A-PD-L1-NL stable cells transfected with MYC-tagged FAK; 1% NP-40 lysis buffer; IP with anti-MYC (blot anti-PD-L1) or anti-PD-L1 (blot anti-FAK), IgG as control.
Assay [2] addresses FLAG-tagged PD-L1 (SFB-tagged PD-L1) (UniProt Q9NZQ7). Description: co-IP; HEK293A cells transfected with MYC-tagged FAK and SFB/FLAG-tagged PD-L1, alone or together; 1% NP-40 lysis buffer; IP with anti-FLAG (blot anti-MYC) or anti-MYC (blot anti-FLAG).
The target in assay [3] is MYC-tagged FAK (focal adhesion kinase) (UniProt Q05397). Description: co-IP; HEK293A-PD-L1-NL stable cells transfected with MYC-tagged FAK; 1% NP-40 lysis buffer; IP with anti-MYC (blot anti-PD-L1) or anti-PD-L1 (blot anti-FAK), IgG as control.
The target in assay [4] is programmed death-ligand 1 (PD-L1), endogenous in BT-549 cells (human (endogenous in BT-549)) (UniProt Q9NZQ7). Description: co-IP; endogenous proteins; about 1 mg BT-549 lysate; IP with 2 ug IgG (control) or rabbit monoclonal anti-PD-L1; blot with mouse monoclonal anti-FAK.
Assay [5] addresses focal adhesion kinase (FAK), endogenous in BT-549 cells (human (endogenous in BT-549)) (UniProt Q05397). Description: proximity ligation; Duolink PLA in fixed, permeabilized BT-549 cells; anti-PD-L1 (rabbit) plus anti-FAK (mouse); anti-FAK alone as negative control.

Turning to “MYC-tagged FAK (focal adhesion kinase) (from UniProt Q05397 1-1052) (enzyme)”, the binding entry in assay [1] and in assay [2] was “binds” each time.
Consider “PD-L1-NanoLuc fusion (PD-L1-NL) (from UniProt Q9NZQ7 19-290) (ligand)”, for which, in assay [3], the binding result is “binds”.
Take “focal adhesion kinase (FAK), endogenous in BT-549 cells (from UniProt Q05397 1-1052) (enzyme)”: in assay [4], the binding result was “binds”.
As for “programmed death-ligand 1 (PD-L1), endogenous in BT-549 cells (from UniProt Q9NZQ7 19-290)”, in assay [5], the binding entry was “binds”.
